Experiment [1] deals with PER2 (mouse (endogenous in mouse liver)) (UniProt O54943). The experiment is described as follows: affinity purification with mass spectrometry; anti-PER2 on Dynabeads protein G, mouse liver nuclear extract of ZT19 at 150 mM KCl after high-speed centrifugation, overnight, eluted by boiling in SDS sample buffer, LC-MS/MS; negative controls immunoglobulin and Per1/2-/- extract.

Chains of the proteins cited; added tags and fusions are not shown. Lines headed by an entry give the natural chain unless they say otherwise; changes in a name come on top.
UniProt O54943: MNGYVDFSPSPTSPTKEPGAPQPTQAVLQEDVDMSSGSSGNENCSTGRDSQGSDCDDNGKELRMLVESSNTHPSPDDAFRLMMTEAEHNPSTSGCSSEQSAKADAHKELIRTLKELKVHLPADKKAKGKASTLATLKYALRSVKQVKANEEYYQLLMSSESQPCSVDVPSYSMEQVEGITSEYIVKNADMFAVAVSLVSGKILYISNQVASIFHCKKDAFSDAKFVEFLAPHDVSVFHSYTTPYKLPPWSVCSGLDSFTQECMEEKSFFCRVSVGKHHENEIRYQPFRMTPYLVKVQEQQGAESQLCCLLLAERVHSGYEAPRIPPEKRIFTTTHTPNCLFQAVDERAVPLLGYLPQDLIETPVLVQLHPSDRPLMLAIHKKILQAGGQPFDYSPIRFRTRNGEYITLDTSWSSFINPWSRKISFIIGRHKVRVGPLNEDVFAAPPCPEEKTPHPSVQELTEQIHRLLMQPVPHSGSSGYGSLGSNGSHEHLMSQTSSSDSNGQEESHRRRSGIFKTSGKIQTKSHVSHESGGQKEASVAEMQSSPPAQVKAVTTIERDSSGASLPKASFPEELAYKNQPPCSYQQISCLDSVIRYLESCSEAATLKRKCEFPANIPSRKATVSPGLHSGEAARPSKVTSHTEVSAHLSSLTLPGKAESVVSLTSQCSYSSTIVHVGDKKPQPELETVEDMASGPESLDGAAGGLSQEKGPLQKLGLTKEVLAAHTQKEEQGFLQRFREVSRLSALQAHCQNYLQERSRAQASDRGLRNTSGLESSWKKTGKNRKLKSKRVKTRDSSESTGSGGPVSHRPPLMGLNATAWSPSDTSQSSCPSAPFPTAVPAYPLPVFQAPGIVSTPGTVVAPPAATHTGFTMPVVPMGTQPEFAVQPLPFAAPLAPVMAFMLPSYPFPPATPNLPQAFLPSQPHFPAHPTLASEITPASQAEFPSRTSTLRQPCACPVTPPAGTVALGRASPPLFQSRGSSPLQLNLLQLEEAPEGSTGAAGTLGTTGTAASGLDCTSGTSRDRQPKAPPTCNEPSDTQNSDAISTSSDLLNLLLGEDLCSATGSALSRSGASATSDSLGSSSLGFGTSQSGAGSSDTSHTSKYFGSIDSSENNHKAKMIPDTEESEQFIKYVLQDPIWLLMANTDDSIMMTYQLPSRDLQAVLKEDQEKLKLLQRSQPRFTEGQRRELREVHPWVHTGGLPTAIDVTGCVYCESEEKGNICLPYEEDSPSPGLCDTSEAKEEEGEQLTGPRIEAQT
UniProt Q9JMK2: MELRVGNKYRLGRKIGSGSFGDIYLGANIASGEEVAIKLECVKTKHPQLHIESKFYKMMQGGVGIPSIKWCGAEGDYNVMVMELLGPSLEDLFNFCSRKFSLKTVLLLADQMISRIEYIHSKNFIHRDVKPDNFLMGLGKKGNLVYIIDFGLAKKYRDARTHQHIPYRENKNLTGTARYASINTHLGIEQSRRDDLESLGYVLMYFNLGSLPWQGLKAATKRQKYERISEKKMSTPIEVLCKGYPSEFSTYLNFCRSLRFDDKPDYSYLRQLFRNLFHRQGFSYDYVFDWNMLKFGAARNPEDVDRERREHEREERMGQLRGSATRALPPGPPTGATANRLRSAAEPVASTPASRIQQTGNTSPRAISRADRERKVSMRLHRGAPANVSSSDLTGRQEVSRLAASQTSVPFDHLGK
UniProt O35973: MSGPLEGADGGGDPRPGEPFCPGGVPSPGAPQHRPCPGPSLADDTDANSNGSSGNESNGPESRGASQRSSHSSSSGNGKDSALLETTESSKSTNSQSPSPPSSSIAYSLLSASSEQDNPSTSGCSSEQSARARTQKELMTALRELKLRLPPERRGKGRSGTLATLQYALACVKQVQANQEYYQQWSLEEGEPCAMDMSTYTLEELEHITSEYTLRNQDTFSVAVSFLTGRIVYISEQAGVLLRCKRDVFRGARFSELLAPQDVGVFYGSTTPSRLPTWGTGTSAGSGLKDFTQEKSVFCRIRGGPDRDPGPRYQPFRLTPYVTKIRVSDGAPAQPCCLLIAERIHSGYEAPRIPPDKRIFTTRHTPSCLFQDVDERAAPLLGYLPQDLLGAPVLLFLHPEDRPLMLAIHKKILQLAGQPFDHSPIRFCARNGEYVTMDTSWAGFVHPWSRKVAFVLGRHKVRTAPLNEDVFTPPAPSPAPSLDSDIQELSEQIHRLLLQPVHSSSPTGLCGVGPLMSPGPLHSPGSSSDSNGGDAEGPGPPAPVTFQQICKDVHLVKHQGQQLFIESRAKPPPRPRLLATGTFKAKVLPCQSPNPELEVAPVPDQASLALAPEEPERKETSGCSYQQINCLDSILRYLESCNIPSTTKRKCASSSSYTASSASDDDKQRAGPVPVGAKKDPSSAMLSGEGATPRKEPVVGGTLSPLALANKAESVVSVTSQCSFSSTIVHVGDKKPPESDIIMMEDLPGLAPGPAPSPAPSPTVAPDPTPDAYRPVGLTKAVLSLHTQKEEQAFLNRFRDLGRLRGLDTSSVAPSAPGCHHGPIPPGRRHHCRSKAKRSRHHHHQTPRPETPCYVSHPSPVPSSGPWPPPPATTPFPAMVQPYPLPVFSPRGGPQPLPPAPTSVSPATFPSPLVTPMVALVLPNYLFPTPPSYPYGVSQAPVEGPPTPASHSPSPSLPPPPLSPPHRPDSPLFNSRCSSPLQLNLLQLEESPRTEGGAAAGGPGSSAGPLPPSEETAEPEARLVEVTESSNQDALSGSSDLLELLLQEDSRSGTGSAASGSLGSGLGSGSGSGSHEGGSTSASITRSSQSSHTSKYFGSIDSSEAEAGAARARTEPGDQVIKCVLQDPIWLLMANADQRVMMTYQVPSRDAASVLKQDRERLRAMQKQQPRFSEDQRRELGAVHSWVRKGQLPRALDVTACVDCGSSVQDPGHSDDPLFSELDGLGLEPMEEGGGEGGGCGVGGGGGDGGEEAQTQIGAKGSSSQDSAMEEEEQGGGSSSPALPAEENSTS
UniProt Q9DC28: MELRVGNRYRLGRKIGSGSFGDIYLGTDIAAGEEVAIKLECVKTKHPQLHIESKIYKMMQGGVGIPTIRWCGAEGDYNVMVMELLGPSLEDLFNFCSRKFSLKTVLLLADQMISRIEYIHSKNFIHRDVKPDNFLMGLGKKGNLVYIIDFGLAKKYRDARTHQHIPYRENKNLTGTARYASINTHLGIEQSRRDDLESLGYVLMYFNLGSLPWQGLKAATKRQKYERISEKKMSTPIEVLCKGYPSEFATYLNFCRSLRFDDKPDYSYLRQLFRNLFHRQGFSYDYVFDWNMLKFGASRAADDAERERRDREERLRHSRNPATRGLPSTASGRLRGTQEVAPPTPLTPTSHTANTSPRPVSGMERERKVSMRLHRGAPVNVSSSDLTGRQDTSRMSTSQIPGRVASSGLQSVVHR

Experiment [2] concerns the target T1, CRY1 (mouse (endogenous in mouse liver)) (UniProt P97784).
T1 sequence: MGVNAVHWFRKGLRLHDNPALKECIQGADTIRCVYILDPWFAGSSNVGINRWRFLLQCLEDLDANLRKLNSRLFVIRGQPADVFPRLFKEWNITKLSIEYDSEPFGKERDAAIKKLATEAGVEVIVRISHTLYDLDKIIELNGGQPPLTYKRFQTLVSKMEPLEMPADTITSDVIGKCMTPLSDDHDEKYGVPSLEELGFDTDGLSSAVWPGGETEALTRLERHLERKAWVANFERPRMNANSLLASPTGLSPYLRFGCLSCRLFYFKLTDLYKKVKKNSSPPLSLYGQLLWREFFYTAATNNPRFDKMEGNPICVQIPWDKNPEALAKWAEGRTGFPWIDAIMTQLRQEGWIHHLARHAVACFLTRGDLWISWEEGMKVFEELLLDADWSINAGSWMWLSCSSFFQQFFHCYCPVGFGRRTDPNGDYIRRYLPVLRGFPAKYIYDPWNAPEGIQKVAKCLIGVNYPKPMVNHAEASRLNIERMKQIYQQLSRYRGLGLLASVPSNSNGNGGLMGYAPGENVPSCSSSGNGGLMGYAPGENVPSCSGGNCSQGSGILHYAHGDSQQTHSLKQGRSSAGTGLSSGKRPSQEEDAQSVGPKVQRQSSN
In words: affinity purification with mass spectrometry; anti-CRY1 (IgM) on protein L magnetic beads, mouse liver nuclear extracts of ZT0, ZT12, ZT19 at 150 mM KCl after high-speed centrifugation, overnight, eluted with CRY1 peptide, LC-MS/MS; negative controls IgM and Cry1/2-/- extract.

No constants are given. Whether binding was seen depends on the method and setting. Binding seen in cells or lysates may run through a third protein. Here binding means that the protein was enriched with, or labelled near, the bait; the list need not be complete.

Regarding “CK1ε (from UniProt Q9JMK2 1-416) (enzyme)”, in experiment [1], the binding entry is on record as “binds”. PER1 (from UniProt O35973 1-1291): the binding entry in experiment [1] was “binds”. “CK1δ (from UniProt Q9DC28 1-415) (enzyme)”: the binding entry in experiment [2] and in experiment [1] was “binds” in each case.

B1: PER3 (protein, UniProt O70361 1-1113)
chain: MDPCGDPAVPGGDCPQTRGPGLQGASGQEGPLQGTCVDSSHSEHEDRNRMSEELIMVVQEMKKYFPAERHTKPSTLDALNYALRCVHSVQANSDFFQSLGPRGAHQADVTVYSLEDLTALASEHTSKNTDTFAAVFSFLSGRLVHISEQAALILNSKRGFLKSVHFVDLLAPQDVRAFYAHTAPTQLPFWNNWTQRASQYECAPAKPFFCRICGGGDREKRHYSPFRILPYLVHVHSSAQPEPEPCCLTLVEKIHSGYEAPRIPVDKRIFTTTHTPGCVFLEVDERAVPLLGYLPQDLIGTSILTYLHPEDRPLMVAIHQKVLKYAGHPPFEHSPVRFCTQNGEYVILDSSWSSFVNPWSRKVSFIIGRHKVRTSPLNEDVFATRIKKAASNDKDIAELQEQIHKLLLQPVHASASSGYGSLGSSGSQEQHVSITSSSESSGHCPEEGQHEQMTLQQVYASVNKIKNVGQQLYIESMARSSVKPVAETCVEPQGGDEQKDFSSSQTLKNKSTTDTGSGGNLQQEQPSSSYQQMNCIDSVIRYLTSYSLPALKRKCISCTNTSSSSEEAKPIPEVDSSQRDTEQLLDIRKQETTGPSTDIEGGAARTLSTAALSVASGISQCSCSSTSGHAPPLQSESVAVACKPWALRTKASHLAAGGFKHVGLTAAVLSAHTQKEEQNYVDRFREKILTSPYGCYLQQESRNRAQYSCVQAGSTAKHSRCAGSERQKHKRKKLPAPVDTSSPGAHLCPHVTGLLPDEQHWGPSASPSPLGAGLAFPSALVVPSQTPYLLPSFPLQDMASQGVGVSAAWGAAAGCPPLSAGPQAVAAFPSAYVDTLMTIFLHNAPLFPLWPPSFSPYPSLGAAGSSELAPLVPAMAPNPEPTTSGHSQRRVEENWEAHSEELPFISSRSSSPLQLNLLQEEMPAPSESADAVRRGAGPDAKHHCVTGPSGSRSRHCTSGELATATAQQESAAASGSSASSIYFSSTDYASEVSENRQRPQDRQRDEALPGAAEESIWRMIERTPECVLMTYQVPERGREEVLKQDLEKLQSMEQQQPLFSPAQREELAKVRSWIHSHTAPQEGHLQSCVACEDRGSVGDTAEVLEQHPAEDTS
Regarding B1, the binding entry in experiment [1] is listed as “binds”.

For the origin of these results see publication PMC9950529.
